In publication PMC8283807:
Results are given in words; binding and its absence hold for the method and conditions named. In cells and extracts the contact can be indirect. Some entries that bind do so weakly or less than the wild type.

Amino acid sequences for entries named in this document (tags omitted).
UniProt Q8R4B8: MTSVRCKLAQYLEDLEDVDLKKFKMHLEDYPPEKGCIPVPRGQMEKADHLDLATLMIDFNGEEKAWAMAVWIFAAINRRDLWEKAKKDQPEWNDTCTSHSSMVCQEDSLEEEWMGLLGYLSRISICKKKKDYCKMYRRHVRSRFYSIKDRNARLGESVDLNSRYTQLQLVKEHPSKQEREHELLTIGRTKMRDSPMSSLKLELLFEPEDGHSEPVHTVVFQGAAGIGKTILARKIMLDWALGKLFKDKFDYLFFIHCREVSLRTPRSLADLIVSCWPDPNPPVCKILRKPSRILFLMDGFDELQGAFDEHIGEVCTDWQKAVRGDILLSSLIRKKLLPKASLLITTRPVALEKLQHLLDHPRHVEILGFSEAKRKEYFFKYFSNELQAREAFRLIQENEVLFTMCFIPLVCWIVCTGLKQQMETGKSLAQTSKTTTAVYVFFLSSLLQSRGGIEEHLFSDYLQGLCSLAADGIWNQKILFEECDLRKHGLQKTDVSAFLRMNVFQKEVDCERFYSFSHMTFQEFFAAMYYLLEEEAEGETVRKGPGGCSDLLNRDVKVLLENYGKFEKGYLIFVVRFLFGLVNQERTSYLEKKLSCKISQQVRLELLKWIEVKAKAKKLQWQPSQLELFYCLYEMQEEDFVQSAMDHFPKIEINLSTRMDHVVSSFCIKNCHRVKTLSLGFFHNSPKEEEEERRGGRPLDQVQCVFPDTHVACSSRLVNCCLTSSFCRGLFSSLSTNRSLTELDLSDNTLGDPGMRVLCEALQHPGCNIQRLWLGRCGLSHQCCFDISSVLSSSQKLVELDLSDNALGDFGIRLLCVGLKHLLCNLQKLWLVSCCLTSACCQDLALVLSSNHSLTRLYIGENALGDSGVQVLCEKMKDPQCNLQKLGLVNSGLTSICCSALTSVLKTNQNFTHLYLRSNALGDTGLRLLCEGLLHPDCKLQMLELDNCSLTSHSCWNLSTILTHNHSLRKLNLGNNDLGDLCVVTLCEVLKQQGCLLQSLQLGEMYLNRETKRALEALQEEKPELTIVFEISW

Legend:
[1] = target: NLR family pyrin domain containing 3 (NLRP3) (mouse (endogenous in mouse primary microglia)) (UniProt Q8R4B8); experiment: proximity ligation; Duo-link PLA in fixed mouse primary microglia with antibodies against NLRP3 and TXNIP; cells treated with αSynagg or vehicle (18 h in the methods, 24 h in the legend); puncta quantified with ImageJ
[2] = target: NLR family pyrin domain containing 3 (NLRP3) (mouse (endogenous in mouse primary microglia)) (UniProt Q8R4B8); experiment: co-IP; endogenous proteins in cell lysate (TNE buffer: 10 mM Tris-HCl pH 7.5, 1% Nonidet P-40, 0.15 M NaCl, 1 mM EDTA), protein A/G magnetic beads; cells treated with αSynagg or vehicle; legend: IP with NLRP3, immunoblot with TXNIP antibody; methods: IP with anti-TXNIP antibody

binding [1]: binds | binding [2]: binds
B1: Thioredoxin-interacting protein (TXNIP) (protein, UniProt Q8BG60 1-397)
chain: MVMFKKIKSFEVVFNDPEKVYGSGEKVAGRVIVEVCEVTRVKAVRILACGVAKVLWMQGSQQCKQTLDYLRYEDTLLLEEQPTAGENEMVIMRPGNKYEYKFGFELPQGPLGTSFKGKYGCVDYWVKAFLDRPSQPTQEAKKNFEVMDLVDVNTPDLMAPVSAKKEKKVSCMFIPDGRVSVSARIDRKGFCEGDDISIHADFENTCSRIVVPKAAIVARHTYLANGQTKVFTQKLSSVRGNHIISGTCASWRGKSLRVQKIRPSILGCNILKVEYSLLIYVSVPGSKKVILDLPLVIGSRSGLSSRTSSMASRTSSEMSWIDLNIPDTPEAPPCYMDIIPEDHRLESPTTPLLDDVDDSQDSPIFMYAPEFQFMPPPTYTEVDPCVLNNNNNNNNVQ
